The results in this text go back to the supplement of paper PMC4256282, “Profound Activity of the Anti-cancer Drug Bortezomib against Echinococcus multilocularis Metacestodes Identifies the Proteasome as a Novel Drug Target for Cestodes” (PLoS Neglected Tropical Diseases, 2014).

Counter-ions that a name gives are not always drawn. Some of the results follow. Most values come without repeats; read them as rough.

In the test the test system is Echinococcus multilocularis metacestodes. The experiment in a line: vesicle damage (PGI release) relative to positive control DB1127 at 20 µM, DMSO subtracted; higher = more parasite damage. Conditions: treatment time 5 days.
As to `CC(=O)O[C@@]12CO[C@@H]1C[C@H](O)[C@@]1(C)C(=O)[C@H](O)C3=C(C)[C@@H](OC(=O)[C@H](O)[C@@H](NC(=O)OC(C)(C)C)c4ccccc4)C[C@@](O)([C@@H](OC(=O)c4ccccc4)[C@H]21)C3(C)C` [Docetaxel], the vesicle damage is -4.32%.
`CC1(C)O[C@@H]2C[C@H]3[C@@H]4CCC5=CC(=O)C=C[C@]5(C)[C@@]4(F)[C@@H](O)C[C@]3(C)[C@]2(C(=O)CO)O1` [Triamcinolone acetonide]: the vesicle damage was -2.46%.
For `NNc1nncc2ccccc12` [Hydralazine hydrochloride] the value was 3.11%; for `Cc1cc2nc3c(=O)[nH]c(=O)nc-3n(C[C@H](O)[C@H](O)[C@H](O)CO)c2cc1C` [Riboflavin], -10.9%.
As for `CS(=O)(=O)CCNCc1ccc(-c2ccc3ncnc(Nc4ccc(OCc5cccc(F)c5)c(Cl)c4)c3c2)o1` [Lapatinib Ditosylate], the vesicle damage is 5.98%.
Consider `CN(C)CCCN1c2ccccc2CCc2ccc(Cl)cc21` [Clomipramine hydrochloride], for which the vesicle damage was determined as 31.2%.
